Broadly, the IC50 is the concentration that gives 50% inhibition. Low readings indicate inhibition by little substance, high ones a need for much substance.

Data on 1 compound can be found in US20250257069A1, “JAK INHIBITOR ANALOGS, FORMULATIONS, AND USES THEREOF” (THE REGENTS OF THE UNIVERSITY OF MICHIGAN, priority 2022, published 2025).

The structures appear in SMILES notation.

For one assay, the system named is HEL 92.1.7 cells. Description: Anti-proliferative assay in HEL cells (CellTiter 96 Aqueous). The assay is classed as cell-based. To be noted: Homo sapiens, 72 h, 3 days. The procedure: (§1) Cell Culture and anti-proliferative assay. Human cell lines HEL 92.1.7 and SET-2 were obtained from American Type Culture Collection (ATCC) and Leibniz Institute DSMZ-German Collection of Microorganisms and Cell Cultures GmbH, respectively. HEL and SET-2 cells were cultured in RMPI 1640 medium (Life Technologies Corporation, New York, USA) supplemented with 10% or 20% fetal bovine serum (FBS, Life Technologies Corporation, New York, USA), respectively. Cells were incubated at 37° C. in a humidified atmosphere of 5% CO2. Cells were seeded into 96-well culture plates at the density of approximately 8000 cells per well and treated with various concentrations of compounds for 3 days in final volumes of 200 μL. Upon end point, cells were treated using CellTiter 96 Aqueous Assay Reagents (Promega Corporation, Madison, USA) according to the provider's instruction. Briefly, MITS and PMS solution were thawed and mixed (20:1, v/v) before use and pipet appropriate amount of the mixed solution into each well of the 96 well assay plates. The plates were incubated for 1-4 hours at 37° C. in a humidified atmosphere of 5% CO2. The absorbance at 490 nm was recorded using CYTATION 5 imaging reader (BioTek, VT, USA). IC50 values were calculated using percentage of growth versus untreated control.

The subject of a further assay is SET-2 cells. The assay is described as follows: Anti-proliferative assay in SET-2 cells (CellTiter 96 Aqueous). The assay is classed as cell-based. To be noted: Homo sapiens, 72 h, 3 days. The procedure: as §1

For `C[C@@H]1CCN(C(=O)CC#N)C[C@@H]1N(C)c1ncnc2[nH]ccc12` [Tofacitinib, reference compound], the IC50 in the assay with HEL 92.1.7 cells is 3690 nM; in the assay with SET-2 cells, around 0.00731 nM.
